This note sets out measurements from PMC5432859.

These are yes or no findings as the source states them, for the method shown. Binding seen in cells or lysates may run through a third protein. Binding can be weak; no strength is given. Where a sequence is shown, tags or fusion partners need not be part of it.

This experiment has as its target feline A3Z2Z3 tagged with HA (domestic cat (Felis catus)). In words: co-IP; HEK293T cotransfected with His-tagged FIV Vif (4 ug) and feline A3Z2Z3-HA (2 ug); MG132 10 uM from 24 h after transfection; lysis buffer 150 mM NaCl, 1% Triton X-100 in PBS; lysates mixed with anti-HA magnetic beads, 4°C, 3 h; washed with RIPA buffer and PBS; Western blotting. Background: A western blot detects proteins with antibodies after separation by electrophoresis.

B1: His-tagged Vif of FIV subtype A (strain Petaluma) (protein, UniProt P16089 1-251)
chain: MSEEDWQVSRRLFAVLQGGVNSAMLYISRLPPDEREKYKKDFKKRLFDTETGFIKRLRKAEGIKWSFHTRDYYIGYVREMVAGSTTSLSLRMYIYISNPLWHSQYRPGLKNFNKEWPFVNMWIKTGFMWDDIEKQNICIGGEVSPGWGPGMVGIAIKAFSCGERKIEATPVMIIRGEIDPKKWCGDCWNLMCLRNSPPKTLQRLAMLACGVPAKKWRGCCNQRFVSPYRTPADLEVIQSKPSWNLLWSGEL
On to B1, for which the binding result is on record as “binds”.
